## Screening data, single-dose tests

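Whole-cell growth test on Mycobacterium tuberculosis, read after 4 days in a medium based on cholesterol and the lipid DPPC; the read-out is not stated. Concentration: 50 µM. Higher reads as more growth inhibition (inferred: compounds with an IC50 in retests scored well above the rest). Size under these conditions: about 69,000 compounds, about 370 of them at 50% or above in at least one test.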

The filed quantity is “Percent Effect” (%).
The record does not define 0% and 100%; most values in the screen are far below 50% and negative numbers occur (in some assays of this library far below -100).
This is an unselected part of the compounds tested.
Two or more numbers in one place are separate tests of the same structure; such repeats can differ widely.

Compound	Percent Effect
COCCc1nc(CSc2ccncc2)n(C)n1	-7.804%
CCn1cc(CN2CCC(CCC(=O)Nc3ccccc3Cl)CC2)cn1	-20.75%
CC(NC(=O)CN1CCN(c2cccc(Cl)c2)CC1)c1ccco1 (stereo not shown)	-6.868%
[H][C@@]12C[C@H](C(=O)NC)[C@@]([H])(CN(c3ncc(CC)cn3)C1)O2	12.54%
CC(C)c1ccc(C2(C(=O)NCCS(N)(=O)=O)CCC2)cc1	-16.51%
CNC(=O)c1nc(CC(=O)Nc2cccc(C(F)(F)F)c2)no1	-21.59%
Cc1[nH]c2ccc(CNc3cc(C(N)=O)ccn3)cc2c1C	20.03%
Cc1cc(C(=O)Nc2ccn(CCCN3CCCC3)n2)c(C)o1	-5.042%
CC(NS(C)(=O)=O)C(=O)N(C)Cc1cnn(-c2ccc(F)cc2)c1 (stereo not shown)	-22.96%
C=C(C)COc1ccccc1NC(=O)N1CCCCC1CO (stereo not shown)	-16.17%
COc1ccc(Nc2nc3c(C)nn(C)c3c(=O)n2C)cc1	-32.4%
Cc1noc(C)c1CN(C)C(=O)c1nc(N2CCCC2)ncc1Cl	-25.45%
CCCn1c(N2CCCCC2)nc2c(C)nn(C)c2c1=O	-19.85%
CCN1CC(COC(=O)c2ccc(N(C)C)cc2F)CC1=O (stereo not shown)	-2.243%
CN1CCCC1c1ccc(N2CCOCC2)cn1 (stereo not shown)	-3.888% & -0.6631%
Cc1cc(NC(=O)C(C)Cn2cncn2)no1 (stereo not shown)	-20.46% & -4.961%
[H][C@]12CC[C@](O)(c3ccc(C)cc3)[C@@]1([H])CN(S(=O)(=O)C(C)C)C2	0.9514%
O=C(c1ccco1)N1CCN(Cc2nc(C3CC3)no2)CC1	8.951%
CCOc1ccc(CN2CCC3(CC2)CNC(=O)C3)cn1	-0.7479% & 5.933%
CN(C)C(=O)CCCS(=O)(=O)Cc1cc(Cl)c2c(c1)OCO2	-12.35%
Cc1nc(Cn2cc(C#N)c(=O)c3ccccc32)no1	-22.29%
O=C(O)C(F)(F)F.[H][C@]12CC[C@@]3(N=C(C)N(CC4CC4)C3=O)[C@@]1([H])CN(CC1CC1)C2	1.521% & -9.851%
O=C(O)C(F)(F)F.O=C(O)C(F)(F)F.[H][C@@]12CN(Cc3cnn(C)c3)C[C@]1([H])OCCN2c1ncccn1	-20.03%
Cc1ccc(NC(=O)NCC2CCS(=O)(=O)C2)cc1Cl (stereo not shown)	-17.81% & -2.976%
COc1ccccc1C1(C(=O)N2CCCC(c3cc(C)[nH]n3)C2)CC1 (stereo not shown)	-18.4%
CC(=O)N1CCOC2(CCCN(Cc3ccc(Cl)c(C(F)(F)F)c3)C2)C1 (stereo not shown)	3.434%
CC(C)NC(=O)N1CCCCC1c1nnc2n1CCNC2 (stereo not shown)	9.106%
CCc1nc(CCNC(=O)Nc2cc(C(N)=O)ccc2OC)cs1	1.504% & -13.37%
Cc1ccc2nc(CN(C)Cc3ccc(C)o3)cc(=O)n2c1	-21.84%
[H][C@@]12C[C@H](c3nc(C)no3)CN(S(=O)(=O)C3CC3)[C@]1([H])CCO2	-6.786%
CCOCCOCc1cccc(CNc2cncc(-n3cccn3)n2)c1	6.76%
FC(F)(F)c1nc(NC2CCCC2)c2ccccc2n1	13.84%
Cc1ccc(OCC(O)CN(C)CC(=O)NC(C)C)c(C)c1 (stereo not shown)	-2.55% & -2.963%
Cc1cc(C)n(-c2ccc(C(=O)N3CCCC3c3cnn(C)c3)cc2)n1 (stereo not shown)	-7.625%
N#Cc1cc2c(=O)n(CC(O)c3cccc(O)c3)ccc2[nH]c1=O (stereo not shown)	4.875%
Cc1cc(C2CCCN2Cc2nnc(-c3ccco3)o2)on1 (stereo not shown)	-2.199%
[H][C@@]12CN(Cc3cccnc3)C[C@]1([H])N(CCCN1CCOCC1)C(=O)O2	-1.298% & -4.873%
Cn1c(Cn2cccn2)nnc1C1CCN(Cc2cccnc2)CC1	-2.153%
O=C(C1=CC2(CCN(CCO)CC2)c2ccccc21)N1CCCC1.O=C(O)C(F)(F)F	-11.04%
O=C(c1ccc[nH]1)N1CCN(CC2CCOc3ccccc3C2)CC1 (stereo not shown)	-19.39%
CCC(=O)NC1CCCN(C(=O)Nc2cccc(COC(C)C)c2)C1 (stereo not shown)	4.384%
CCN(Cc1nnnn1C1CC1)c1cc(C)ccc1C	-32.2%
CC(C)(C)c1nnc2n1C(C(=O)N1CCN(c3ncccn3)CC1)CC2 (stereo not shown)	-14.21%
CCOC(C)c1noc(CN2CCN(CC3CCCC3)CC2)n1 (stereo not shown)	12.41%
CCc1nccn1-c1cccc(C2CCN(C(=O)COC)CC2)n1	6.149%
CC(NC(=O)c1ccsc1)c1ccc2c(c1)NC(=O)CO2 (stereo not shown)	3.186%
O=C1CCN(C(=O)CCc2cc(Br)cs2)CCN1	-4.502% & 7.994%
CCC[C@H]1CN(Cc2cc(C#N)n(C)c2C)C[C@@H]1NS(=O)(=O)CC	2.361%
O=C(NCc1ccoc1)Nc1cc(C(F)(F)F)c[nH]c1=O	-7.642%
Cn1cc(Br)c(C(=O)NCCCn2cc(Cl)cn2)n1	4.482%
Cc1cc(NC(=O)CCc2ccsc2)n(C)n1	-20.42%
O=C(O)c1cccc(CN2CCC(c3ccnc4ccnn34)CC2)c1	19.62%
O=C(O)C(F)(F)F.[H][C@]12CCN(CC(C)C)CC[C@@]1([H])S(=O)(=O)CCN2C(=O)c1ccccc1	21.26%
Cn1c(CN2CCCC(N3CCCCCC3)C2)cc(=O)n(C)c1=O (stereo not shown)	13.62%
CN(Cc1ccc(O)cc1)C(=O)NCc1nnc2n1CCCCC2	-25%
Cc1noc(C2CCC3(CCN(C(=O)c4ccncn4)CC3)O2)n1 (stereo not shown)	-0.478%
Cc1nn(CCC#N)c(C)c1CCC(=O)N(C(C)C)C1CC1	-17.94%
CNc1cc(C)nc(-c2cc(NC)nc3[nH]ccc23)n1	-0.7052%
CCNc1cc2c(nn1)CCN(C(=O)c1ccc(CNC(C)=O)o1)C2	-28.87%
CCOCCN1CCN(C(C)c2nc(C3CC3)no2)CC1 (stereo not shown)	-22.68%
O=C(O)C(F)(F)F.[H][C@@]12CN(C(=O)c3ccco3)C[C@]1([H])C(=O)N(Cc1cccc(C)n1)C2	-9.535%
CNc1nc(CNC(=O)Nc2cccc(-c3nnco3)c2)cs1	-6.654%
COCc1nc(-c2ccnc(N3CCNCC3)n2)no1.Cl.Cl	-16.13%
Cc1nnc(CN(CCc2ccccc2)C2CCN(C)CC2)s1	0.01178%
Cc1ccc(S(=O)(=O)N2CCN(CCC(N)=O)CC2)s1	4.071% & -7.872%
[H][C@@]12CCCO[C@]1([H])[C@H](NS(C)(=O)=O)CN(C(=O)c1ccoc1C)C2	-13.67%
O=C1NCCN(Cc2cccnc2)C1CC(=O)N1CCc2n[nH]cc2C1 (stereo not shown)	-1.006%
COc1cccc(C(C(=O)O)N2CCC(Cn3cccn3)CC2)c1OC (stereo not shown)	-19.52%
Cc1ccc(S(=O)(=O)NC(=O)CCOCc2ccccc2)s1	-18.35%
COc1ccc(CC(C)(O)CNC(=O)c2cccs2)cc1 (stereo not shown)	-1.695%
Cc1nc2c(c(NCc3ccccc3)n1)CCN(C(=O)NC(C)C)CC2	-37.91%
CC(C)(N)c1cn([C@@H]2c3ccccc3C3(CCNCC3)[C@H]2O)nn1	-7.162%
O=C(O)C(F)(F)F.[H][C@@]12OCCC[C@]1([H])N(C(=O)c1cccn1C)C[C@H]2OCc1ccncc1	-1.301%
CCc1cc(NCCCNS(C)(=O)=O)nc(-c2ccccn2)n1	-0.5488%
O=C(c1ccnc(N2CCOC(C(F)(F)F)C2)c1)N1CCCC1 (stereo not shown)	-13.47%
CCOC(=O)c1nc(CN2CCN(C(C)C(=O)NC3CC3)CC2)cs1 (stereo not shown)	-25.91%
CC(=O)Nc1nc(C(=O)Nc2ccc(F)cc2)cs1	-26.26%
CCc1nc(CN2CCOC(Cn3nc(C)cc3C)C2)no1 (stereo not shown)	-5.895%
Cc1ccsc1C(=O)Nc1ccc(N2CCC(O)CC2)c(C#N)c1	12.57%
CC(C)CN(C)Cc1c[nH]nc1-c1ccc(F)cc1F	-17.24%
O=C(Nc1cccc(F)c1)N1CCN(Cc2noc(C3CC3)n2)CC1	9.8%
Cc1c(Br)cnn1C(C)C(=O)Nc1nncs1 (stereo not shown)	-18.64%
O=C(CCn1cnc2cc(F)c(F)cc21)N1CCN2CCCCC2C1 (stereo not shown)	8.72%
Cc1cnn(CC2CCCCN2CC(=O)Nc2nncs2)c1 (stereo not shown)	11.47%
CN(C)CCn1c(=O)oc2ccc(NC(=O)C3CCCO3)cc21 (stereo not shown)	0.02168%
Cc1ccc(CN2CCN(C(=O)c3ccc(CO)cc3)C(C)C2=O)cc1 (stereo not shown)	13.36%
COc1ncc(-c2ccc(NC(C)=O)cc2)c(OC)n1	21.74%
CCC(CN1CCCC1)n1cncc1-c1cnn(-c2ccc(F)cc2)c1.Cl (stereo not shown)	-13.36% & -5.559%
CCCn1nc2c(cc1=O)CN(Cc1nc(-c3ccco3)no1)CC2	11.18%
Cn1cc(Cl)c(CN2CCCC(Cn3cc(CO)nn3)C2)n1 (stereo not shown)	9.415%

The first 9 entries again:

{"compound": "COCCc1nc(CSc2ccncc2)n(C)n1", "Percent Effect": -7.804}
{"compound": "CCn1cc(CN2CCC(CCC(=O)Nc3ccccc3Cl)CC2)cn1", "Percent Effect": -20.75}
{"compound": "CC(NC(=O)CN1CCN(c2cccc(Cl)c2)CC1)c1ccco1", "stereo": "stereo not shown", "Percent Effect": -6.868}
{"compound": "[H][C@@]12C[C@H](C(=O)NC)[C@@]([H])(CN(c3ncc(CC)cn3)C1)O2", "Percent Effect": 12.54}
{"compound": "CC(C)c1ccc(C2(C(=O)NCCS(N)(=O)=O)CCC2)cc1", "Percent Effect": -16.51}
{"compound": "CNC(=O)c1nc(CC(=O)Nc2cccc(C(F)(F)F)c2)no1", "Percent Effect": -21.59}
{"compound": "Cc1[nH]c2ccc(CNc3cc(C(N)=O)ccn3)cc2c1C", "Percent Effect": 20.03}
{"compound": "Cc1cc(C(=O)Nc2ccn(CCCN3CCCC3)n2)c(C)o1", "Percent Effect": -5.042}
{"compound": "CC(NS(C)(=O)=O)C(=O)N(C)Cc1cnn(-c2ccc(F)cc2)c1", "stereo": "stereo not shown", "Percent Effect": -22.96}

Data taken from ChEMBL document CHEMBL3988442, “University of Dundee, Small-Polar-MMV Screening Library” (2021).